Laboratory results: PubChem BioAssay AID1224826 (NIAID, 2016)

- Purpose: 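Knock-downs that raise or lower Tnf reporter signal after endotoxin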 (primary screen)
- System: RAW264.7 G9 macrophages from mouse bearing reporters for p65 (GFP) and the Tnf promoter (mCherry)
- Reagent: siRNA pool against mouse genes, 100 nM
- Time to read-out: 16 h of LPS stimulation, after 2 days of siRNA transfection
- Conditions: bacterial lipopolysaccharide (Salmonella minnesota R595), 10 ng/ml
- Read-out: 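Nuclear mCherry signal of the Tnf promoter reporter measured by imaging after background removal, scaled to each plate median and turned into robust z-scores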
- Reading the numbers: Tnf reporter robust z-score: higher = stronger Tnf promoter reporter signal after LPS; Tnf reporter intensity: higher = stronger Tnf promoter reporter signal
- Active means: 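a well counts as active at a score of -1.3 or below (Tlr4 knock-down control median) or above 3 (raised signal); controls and wells holding fewer than 50 cells are excluded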
- Calls: active = Tnf reporter clearly lowered or raised; inactive = no clear change in Tnf reporter
Here is an unselected part of about 17,000 reagents. Of all reagents, about 1,110 (6.6%) got an active call. 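Active means lowered or raised reporter signal; replicate intensities are raw and not normalised per plate.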 The numbers tell different reagents against one gene apart.

target,reagent no.,Tnf reporter robust z-score,fewer than 50 cells in well,"Tnf reporter intensity, replicate 1","Tnf reporter intensity, replicate 2",activity call
Wdr20 (WD repeat domain 20),1,,fewer than 50 cells per well; well left out of calls,124,41.6,inactive
Stard3nl (STARD3 N-terminal like),1,2.07,enough cells in well,236,108,inactive
Ppcdc (phosphopantothenoylcysteine decarboxylase),1,-1.15,enough cells in well,103,123,inactive
Grhl1 (grainyhead like transcription factor 1),1,-1.75,enough cells in well,45.8,40.4,active
Elovl7 (ELOVL fatty acid elongase 7),1,-0.39,enough cells in well,126,124,inactive
Ddx27 (DEAD box helicase 27),1,1.08,enough cells in well,266,212,inactive
"Plcd4 (phospholipase C, delta 4)",1,0.15,enough cells in well,143,129,inactive
Hpgds (hematopoietic prostaglandin D synthase),1,-0.57,enough cells in well,177,174,inactive
Rhbdd3 (rhomboid domain containing 3),1,,fewer than 50 cells per well; well left out of calls,95,93.8,inactive
"Tut1 (terminal uridylyl transferase 1, U6 snRNA-specific)",1,,fewer than 50 cells per well; well left out of calls,144,44.2,inactive
Slc7a8,1,-0.13,enough cells in well,108,84,inactive
Popdc1 (popeye domain cAMP effector 1),1,0.23,enough cells in well,115,184,inactive
"Myh14 (myosin, heavy polypeptide 14)",1,,fewer than 50 cells per well; well left out of calls,209,49.2,inactive
Npc1l1 (NPC1 like intracellular cholesterol transporter 1),1,-0.11,enough cells in well,179,146,inactive
"Rab37 (RAB37, member RAS oncogene family)",1,-0.35,enough cells in well,106,122,inactive
"Rabep2 (rabaptin, RAB GTPase binding effector protein 2)",1,-0.83,enough cells in well,86.5,100,inactive
Slc71a2,1,0.57,enough cells in well,205,180,inactive
A430057M04Rik (RIKEN cDNA A430057M04 gene),1,-1.01,enough cells in well,120,105,inactive
Or2c1 (olfactory receptor family 2 subfamily C member 1),1,0.48,enough cells in well,351,80.5,inactive
Kat2b (K(lysine) acetyltransferase 2B),1,-0.49,enough cells in well,164,181,inactive
Ufsp1 (UFM1-specific peptidase 1),1,,fewer than 50 cells per well; well left out of calls,239,135,inactive
Slc31a1,1,,fewer than 50 cells per well; well left out of calls,19.3,30.6,inactive
Ctnna1 (catenin alpha 1),1,-1.59,enough cells in well,119,91.6,active
Spdl1 (spindle apparatus coiled-coil protein 1),1,,fewer than 50 cells per well; well left out of calls,95.1,32.8,inactive
Or5p53 (olfactory receptor family 5 subfamily P member 53),1,0.17,enough cells in well,95.6,135,inactive
4930550C14Rik (RIKEN cDNA 4930550C14 gene),1,,fewer than 50 cells per well; well left out of calls,191,63.6,inactive
Ceacam14 (CEA cell adhesion molecule 14),1,0.35,enough cells in well,169,217,inactive
Or2h1 (olfactory receptor family 2 subfamily H member 1),1,-1.67,enough cells in well,70.7,51.9,active
Rxfp2 (relaxin/insulin-like family peptide receptor 2),1,0,enough cells in well,225,278,inactive
Plxna3 (plexin A3),1,-0.09,enough cells in well,235,189,inactive
Anapc7 (anaphase promoting complex subunit 7),1,2.38,enough cells in well,325,281,inactive
Gpatch11 (G patch domain containing 11),1,,fewer than 50 cells per well; well left out of calls,186,58.8,inactive
"Atp6v1g3 (ATPase, H+ transporting, lysosomal V1 subunit G3)",1,-0.18,enough cells in well,165,150,inactive
"Chrna4 (cholinergic receptor, nicotinic, alpha polypeptide 4)",1,-0.52,enough cells in well,259,119,inactive
"St3gal2 (ST3 beta-galactoside alpha-2,3-sialyltransferase 2)",1,0.38,enough cells in well,101,128,inactive
Endod1 (endonuclease domain containing 1),1,,fewer than 50 cells per well; well left out of calls,99.4,33.3,inactive
"Tas2r125 (taste receptor, type 2, member 125)",1,0.06,enough cells in well,333,74.5,inactive
Ramac (RNA guanine-7 methyltransferase activating subunit),1,,fewer than 50 cells per well; well left out of calls,0,70.7,inactive
Exosc1 (exosome component 1),1,-0.54,enough cells in well,190,120,inactive
Gbx1 (gastrulation brain homeobox 1),1,0.35,enough cells in well,236,180,inactive
3830403N18Rik (RIKEN cDNA 3830403N18 gene),1,-0.4,enough cells in well,151,65.6,inactive
Il11 (interleukin 11),1,-0.27,enough cells in well,208,178,inactive
"Zfand3 (zinc finger, AN1-type domain 3)",1,0.17,enough cells in well,122,101,inactive
Rnf113a2 (ring finger protein 113A2),1,,fewer than 50 cells per well; well left out of calls,127,54.1,inactive
Drg1 (developmentally regulated GTP binding protein 1),1,-0.88,enough cells in well,165,143,inactive
Fem1al (fem-1 homolog A like),1,,fewer than 50 cells per well; well left out of calls,190,86.1,inactive

Records above whose gene name starts with G or g:
target,reagent no.,Tnf reporter robust z-score,fewer than 50 cells in well,"Tnf reporter intensity, replicate 1","Tnf reporter intensity, replicate 2",activity call
Grhl1 (grainyhead like transcription factor 1),1,-1.75,enough cells in well,45.8,40.4,active
Gpatch11 (G patch domain containing 11),1,,fewer than 50 cells per well; well left out of calls,186,58.8,inactive
Gbx1 (gastrulation brain homeobox 1),1,0.35,enough cells in well,236,180,inactive

The listing continues:
target,reagent no.,Tnf reporter robust z-score,fewer than 50 cells in well,"Tnf reporter intensity, replicate 1","Tnf reporter intensity, replicate 2",activity call
Tstd2,1,,fewer than 50 cells per well; well left out of calls,149,87.4,inactive
Cenpe (centromere protein E),1,-0.21,enough cells in well,246,177,inactive
Hspa1l (heat shock protein 1-like),1,0.64,enough cells in well,274,243,inactive
Rpl32 (ribosomal protein L32),1,,fewer than 50 cells per well; well left out of calls,19.6,32.2,inactive
Kat6b (K(lysine) acetyltransferase 6B),1,-1.82,enough cells in well,89.7,34.2,active
Mrps28 (mitochondrial ribosomal protein S28),1,0.85,enough cells in well,306,128,inactive
"Tarm1 (T cell-interacting, activating receptor on myeloid cells 1)",1,0.43,enough cells in well,200,222,inactive
Rnasel,1,-0.17,enough cells in well,177,159,inactive
"Gja4 (gap junction protein, alpha 4)",1,-0.21,enough cells in well,241,215,inactive
A530020G20Rik (RIKEN cDNA A530020G20 gene),1,-0.25,enough cells in well,148,149,inactive
Defb37 (defensin beta 37),1,-1.36,enough cells in well,108,81.7,active
Slfn4 (schlafen 4),1,1.76,enough cells in well,175,144,inactive
Kdm5a (lysine demethylase 5A),1,-0.11,enough cells in well,241,137,inactive
"Zfyve26 (zinc finger, FYVE domain containing 26)",1,0.87,enough cells in well,175,248,inactive
Ninj1 (ninjurin 1),1,-0.64,enough cells in well,226,113,inactive
Bcl6 (B cell leukemia/lymphoma 6),1,0.16,enough cells in well,150,175,inactive
Fgf18 (fibroblast growth factor 18),1,,fewer than 50 cells per well; well left out of calls,34.7,80.5,inactive
"Tas2r102 (taste receptor, type 2, member 102)",1,-0.08,enough cells in well,115,65.9,inactive
"Cyp11a1 (cytochrome P450, family 11, subfamily a, polypeptide 1)",1,-0.03,enough cells in well,238,195,inactive
Dcpp1 (demilune cell and parotid protein 1),1,-1.51,enough cells in well,99.9,73.7,active
Dcpp1 (demilune cell and parotid protein 1),2,,fewer than 50 cells per well; well left out of calls,62.2,40.8,inactive
Klf7 (Kruppel-like transcription factor 7 (ubiquitous)),1,-1.17,enough cells in well,170,72.8,inactive
Or3a4 (olfactory receptor family 3 subfamily A member 4),1,-0.21,enough cells in well,156,120,inactive
Zkscan6 (zinc finger with KRAB and SCAN domains 6),1,-1.54,enough cells in well,57.5,58.3,active
Zfp474 (zinc finger protein 474),1,0.26,enough cells in well,233,69.9,inactive
Ufd1 (ubiquitin recognition factor in ER-associated degradation 1),1,2.57,enough cells in well,433,425,inactive
Shisa2 (shisa family member 2),1,-0.01,enough cells in well,183,185,inactive
Thumpd3 (THUMP domain containing 3),1,-0.52,enough cells in well,191,144,inactive
"Fntb (farnesyltransferase, CAAX box, beta)",1,0.57,enough cells in well,312,275,inactive
